This experiment has as its system Salmonella enterica serovar Typhimurium SL1344. Briefly: bacterial growth OD600 after 18 h with compound and polymyxin B; higher = more bacterial growth (less inhibition). The note with it: 50 µM, Mueller-Hinton broth.

Some of the results follow. These are raw signals, not scaled to a control.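 In the initial screen, polymyxin B was used at a concentration that permeabilizes Salmonella's outer membrane but not its inner membrane. Maximum growth was set by DMSO wells with or without polymyxin B. Since plates varied, data were ranked per plate, and compounds giving the lowest OD600 advanced as hits.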

Here are results for 32 compounds from the supplement of paper PMC12889115.

On to `Cc1nnc(CNC(=O)c2coc(COc3ccc(F)cc3)n2)o1`, for which the “bacterial growth OD600” value (polymyxin B 1 µg/mL) came to 0.951.
`Cc1ccc2c(c1)CN(CC(=O)NCc1nc3c(s1)CCCC3)CC(c1ccsc1)O2` (configuration not stated): the “bacterial growth OD600” value (polymyxin B 0.75 µg/mL) was 0.001.
In the case of `O=C(Nc1cccc(-n2cccn2)c1)C1CCCN1C(=O)C1CCCC1` (configuration not stated), the “bacterial growth OD600” value (polymyxin B 1 µg/mL) came to 0.971.
Still for that read-out and setting: with `C=CCN(CC=C)C(=O)c1cc(COc2ccccc2SC)on1` the figure was 0.667; with `Cc1csc(CN(C)C(=O)C2CCC(=O)N(Cc3ccc(Cl)cc3)C2)n1` (configuration not stated), 0.742.
For `CC1(C(=O)N2CCCC2C(=O)Nc2ccc(-c3nc4ccccc4o3)cc2)CC1` (configuration not stated), for the setting “polymyxin B 0.75 µg/mL”, the “bacterial growth OD600” value was 0.888.
On the same count and under the same terms, with `O=C1CCC(CCC(=O)N2CCC(c3ccccc3F)C2)(Cc2cccc3ccccc23)N1` (configuration not stated) the figure was 0.073.
With `COc1cccc(CN2CCN(Cc3cccc4nonc34)CC2CCO)c1` (configuration not stated), where the note is “polymyxin B 1 µg/mL”, the “bacterial growth OD600” value is 0.82.
For `COc1ccc(OC)c(-c2cc(Cl)c3c(c2)CC(CNC(=O)c2cc(C)oc2C)O3)c1` (configuration not stated), the “bacterial growth OD600” value (polymyxin B 0.75 µg/mL) was found to be 0.005.
In the case of `CSCCCNC(=O)c1oc2ccc(C)cc2c1C`, the “bacterial growth OD600” value (polymyxin B 1 µg/mL) came to 0.012.
Turning to `CSc1ccccc1N1C(=O)CN(C(=O)Cc2ccc3c(c2)OCO3)CC1C` (configuration not stated), the “bacterial growth OD600” value (polymyxin B 0.75 µg/mL) amounted to 0.857.
For the compound `O[C@@H]1CN(Cc2ccc3c(c2)OCCO3)CC[C@H]1N1CCN(c2ccccn2)CC1`, the “bacterial growth OD600” value (polymyxin B 1 µg/mL) stood at 0.842.
On the same count and under the same terms, under `COc1ccccc1/C=C/CN1CCNC(=O)C1CC(=O)N1CCCN(C=O)CC1` (configuration not stated) stands 1.27.
`Cc1cnc(SCCN2CCOCC2)nc1C1CCCN(C(=O)c2ccc(OC(C)C)cc2)C1` (configuration not stated): the “bacterial growth OD600” value (polymyxin B 0.75 µg/mL) was 0.842.
As for `CCOC(=O)C1(CCCc2ccccc2)CCCN(C(=O)c2cc3ncccn3n2)C1` (configuration not stated), under “polymyxin B 1 µg/mL”, the “bacterial growth OD600” value worked out at 1.05.
On the same count and under the same terms, under `CN(Cc1cnc2ccccn12)C(=O)c1csc2nc(-c3ccccc3)cn12` stands 1.27.
With `CC1CN(C(=O)c2cc(COc3c(F)cccc3F)on2)CCN1C` (configuration not stated), the “bacterial growth OD600” value (polymyxin B 0.75 µg/mL) was 0.842.
On the same count and under the same terms, under `O=C(CCN1Cc2ccccc2OC(c2ccccc2)C1)NCc1c[nH]nc1-c1ccc(F)cc1` (configuration not stated) stands 0.944; under `CN1CCN([C@@H]2CCN(Cc3ccccc3C#Cc3ccccc3)C[C@H]2O)CC1`, 0.74.
Regarding `c1ccc(CNc2nc3nonc3nc2NCCc2ccccn2)cc1`, where the note is “polymyxin B 1 µg/mL”, the “bacterial growth OD600” value was determined as 0.661.
Take `O=C1N(C2Cc3ccccc3C2)C[C@@H]2C[C@@H](c3cccn3-c3cccnc3)N3CCC[C@@]123`: the “bacterial growth OD600” value (polymyxin B 1 µg/mL) was 0.001.
For `Cc1ccc(OCCN(C)C(=O)C2CC23CCN(Cc2coc4ccccc4c2=O)CC3)cc1` (configuration not stated), where the note is “polymyxin B 0.75 µg/mL”, the “bacterial growth OD600” value came out at 0.029.
Regarding `Cc1cnc(C(=O)N2CCCC(CCc3ccccc3)C2)cn1` (configuration not stated), the “bacterial growth OD600” value (polymyxin B 0.75 µg/mL) is 0.881.
As to `O=C(NCc1cccc(F)c1)C1CCC(=O)N(CCc2cccc(F)c2)C1` (configuration not stated), the “bacterial growth OD600” value (polymyxin B 1 µg/mL) came out at 0.813.
On the same count and under the same terms, with `COc1ccc(CN2CCN(Cc3cc(F)ccc3F)CC2CCO)c(C)c1C` (configuration not stated) the figure was 0.807.
Same read-out and setting: with `CCC(COC)NC(=O)c1cc(OC)ccc1OC1CCN(C2CCCC2)CC1` (configuration not stated) the figure was 0.977; with `CC(=O)NCC(=O)NC1CC(C)(C)Cc2c1cnn2-c1ccc(F)cc1` (configuration not stated), 1.1.
Turning to `CC(=O)c1cc(CN2CCCC2C(=O)Nc2cccc(-n3cccn3)c2)cs1` (configuration not stated), the “bacterial growth OD600” value (polymyxin B 0.75 µg/mL) was 0.918.
For `COc1cc(NC(=O)CCC2CCCN(C(=O)CCn3ccnc3C)C2)cc(OC)c1` (configuration not stated), the “bacterial growth OD600” value (polymyxin B 1 µg/mL) is 1.05.
As to `CC(=O)N1CCC[C@H]1C(=O)N1CCc2onc(-c3cccc(F)c3)c2C1`, the “bacterial growth OD600” value (polymyxin B 0.75 µg/mL) was determined as 0.813.
Regarding `CCOC(=O)C1(CCOc2ccccc2)CCN(Cc2cnc(C)s2)CC1`, the “bacterial growth OD600” value (polymyxin B 1 µg/mL) was 1.07.
As to `COc1cc(CC2(CCC(=O)NCc3c(F)cccc3F)CCC(=O)N2)ccc1F` (configuration not stated), the “bacterial growth OD600” value (polymyxin B 0.75 µg/mL) turned out to be 0.838.
